{
  "source": "the supplement of paper PMC8728848",
  "binders": {"B1": {"name": "Epf (Streptococcus pyogenes) (protein)", "chain": "GDHGPEFNGVMVVKAAEAEELPDDLMNFKGTWEVSADGSSGRFFSKGATDSYVFHLIPAKDVKKPGWREHNEVKDSYIKIDKQSIAARYKTSTTAPYSVAFKVNTKSLIKDHDYKITFEQGQIASGITVDYRIGSAFNKTTDDSFKISDESKYASNVKIEGEEQGFKQREQGDKTISFRTLKEGPMSLVLLSKVEKKPQGDLDVEFKNLKIIDVTNPSQLDKGVAYVGNKNVQLTLKSDDGRTNFEGDEISLFNSRGELLQTVTVTKDQQNPISITLSEDQAKSLKNKEKLKVSIKQKQSKKTSKDFFFEVGIDPKVEAKQKEKLLELDKVKKQIEDSINGDAWLPEKPVDLQGDHGLSAWSHPQFEK"}},
  "experiment_in_all_cases": "glycan array binding signal (z-score within array); higher = stronger binding",
  "conditions_in_all_cases": "glycan notation: IUPAC condensed, linker removed",
  "key": {"Fuc(a1-2)Gal": {"target": "Fuc(a1-2)Gal", "summary_of_the_method": "(§1)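 The binding signal is a Z-score computed within each array and averaged over linkers. Arrays of the same protein sequence at different concentrations or buffers were also averaged together. Data originate from 3228 arrays in the Consortium for Functional Glycomics database, kept only where the protein sequence was available.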"}, "Fuc(a1-2)Gal(b1-3)GalNAc": {"target": "Fuc(a1-2)Gal(b1-3)GalNAc", "summary_of_the_method": "as §1"}, "[1]": {"target": "Fuc(a1-2)Gal(b1-3)GalNAc(a1-3)[Fuc(a1-2)]Gal(b1-4)Glc", "summary_of_the_method": "as §1"}, "[2]": {"target": "Fuc(a1-2)Gal(b1-3)GalNAc(a1-3)[Fuc(a1-2)]Gal(b1-4)GlcNAc", "summary_of_the_method": "as §1"}, "[3]": {"target": "Fuc(a1-2)Gal(b1-3)GalNAc(b1-3)Gal", "summary_of_the_method": "as §1"}, "[4]": {"target": "Fuc(a1-2)Gal(b1-3)GalNAc(b1-3)Gal(a1-4)Gal(b1-4)Glc", "summary_of_the_method": "as §1"}, "[5]": {"target": "Fuc(a1-2)Gal(b1-3)GalNAc(b1-4)[Neu5Ac(a2-3)]Gal(b1-4)Glc", "summary_of_the_method": "as §1"}, "Fuc(a1-2)Gal(b1-3)GlcNAc": {"target": "Fuc(a1-2)Gal(b1-3)GlcNAc", "summary_of_the_method": "as §1"}, "[6]": {"target": "Fuc(a1-2)Gal(b1-3)GlcNAc(b1-2)Man(a1-3)[Fuc(a1-2)Gal(b1-3)GlcNAc(b1-2)Man(a1-6)]Man(b1-4)GlcNAc(b1-4)GlcNAc", "summary_of_the_method": "as §1"}, "[7]": {"target": "Fuc(a1-2)Gal(b1-3)GlcNAc(b1-2)Man(a1-3)[Fuc(a1-2)Gal(b1-3)GlcNAc(b1-2)Man(a1-6)]Man(b1-4)GlcNAc(b1-4)[Fuc(a1-6)]GlcNAc", "summary_of_the_method": "as §1"}, "[8]": {"target": "Fuc(a1-2)Gal(b1-3)GlcNAc(b1-3)Gal(b1-4)Glc", "summary_of_the_method": "as §1"}, "[9]": {"target": "Fuc(a1-2)Gal(b1-3)GlcNAc(b1-3)GalNAc", "summary_of_the_method": "as §1"}, "[10]": {"target": "Fuc(a1-2)Gal(b1-3)GlcNAc(b1-3)[Fuc(a1-2)Gal(b1-3)GlcNAc(b1-6)]GalNAc", "summary_of_the_method": "as §1"}, "[11]": {"target": "Fuc(a1-2)Gal(b1-3)GlcNAc(b1-3)[Gal(b1-4)GlcNAc(b1-6)]Gal(b1-4)Glc", "summary_of_the_method": "as §1"}, "[12]": {"target": "Fuc(a1-2)Gal(b1-3)GlcNAc(b1-3)[Neu5Ac(a2-6)Gal(b1-4)GlcNAc(b1-6)]Gal(b1-4)Glc", "summary_of_the_method": "as §1"}, "[13]": {"target": "Fuc(a1-2)Gal(b1-3)GlcNAc6S", "summary_of_the_method": "as §1"}, "[14]": {"target": "Fuc(a1-2)Gal(b1-3)[Fuc(a1-4)]GlcNAc", "summary_of_the_method": "as §1"}, "[15]": {"target": "Fuc(a1-2)Gal(b1-3)[Fuc(a1-4)]GlcNAc(b1-2)Man(a1-3)[Fuc(a1-2)Gal(b1-3)[Fuc(a1-4)]GlcNAc(b1-2)Man(a1-3)]Man(b1-4)GlcNAc(b1-4)GlcNAc", "summary_of_the_method": "as §1"}, "[16]": {"target": "Fuc(a1-2)Gal(b1-3)[Fuc(a1-4)]GlcNAc(b1-2)Man(a1-3)[Fuc(a1-2)Gal(b1-3)[Fuc(a1-4)]GlcNAc(b1-2)Man(a1-6)]Man(b1-4)GlcNAc(b1-4)[Fuc(a1-6)]GlcNAc(b1-4)[Fuc(a1-6)]GlcNAc", "summary_of_the_method": "as §1"}, "[17]": {"target": "Fuc(a1-2)Gal(b1-3)[Fuc(a1-4)]GlcNAc(b1-3)[Fuc(a1-3)[Gal(b1-4)]GlcNAc(b1-6)]Gal(b1-4)Glc", "summary_of_the_method": "as §1"}, "[18]": {"target": "Fuc(a1-2)Gal(b1-3)[Fuc(a1-4)]GlcNAc(b1-3)[Gal(b1-4)GlcNAc(b1-6)]Gal(b1-4)Glc", "summary_of_the_method": "as §1"}, "Fuc(a1-2)Gal(b1-4)Glc": {"target": "Fuc(a1-2)Gal(b1-4)Glc", "summary_of_the_method": "as §1"}, "Fuc(a1-2)Gal(b1-4)Glc6S": {"target": "Fuc(a1-2)Gal(b1-4)Glc6S", "summary_of_the_method": "as §1"}, "Fuc(a1-2)Gal(b1-4)GlcNAc": {"target": "Fuc(a1-2)Gal(b1-4)GlcNAc", "summary_of_the_method": "as §1"}, "[19]": {"target": "Fuc(a1-2)Gal(b1-4)GlcNAc(b1-2)Man", "summary_of_the_method": "as §1"}, "[20]": {"target": "Fuc(a1-2)Gal(b1-4)GlcNAc(b1-2)Man(a1-3)[Fuc(a1-2)Gal(b1-4)GlcNAc(b1-2)Man(a1-6)]Man(b1-4)GlcNAc(b1-4)GlcNAc", "summary_of_the_method": "as §1"}, "[21]": {"target": "Fuc(a1-2)Gal(b1-4)GlcNAc(b1-2)Man(a1-3)[Fuc(a1-2)Gal(b1-4)GlcNAc(b1-2)Man(a1-6)]Man(b1-4)GlcNAc(b1-4)[Fuc(a1-6)]GlcNAc", "summary_of_the_method": "as §1"}, "[22]": {"target": "Fuc(a1-2)Gal(b1-4)GlcNAc(b1-2)[Fuc(a1-2)Gal(b1-4)GlcNAc(b1-4)]Man(a1-3)[Fuc(a1-2)Gal(b1-4)GlcNAc(b1-2)Man(a1-6)]Man(b1-4)GlcNAc(b1-4)GlcNAc", "summary_of_the_method": "as §1"}, "[23]": {"target": "Fuc(a1-2)Gal(b1-4)GlcNAc(b1-3)Gal(b1-4)GlcNAc", "summary_of_the_method": "as §1"}, "[24]": {"target": "Fuc(a1-2)Gal(b1-4)GlcNAc(b1-3)Gal(b1-4)GlcNAc(b1-2)Man(a1-3)[Fuc(a1-2)Gal(b1-4)GlcNAc(b1-3)Gal(b1-4)GlcNAc(b1-2)Man(a1-6)]Man(b1-4)GlcNAc(b1-4)GlcNAc", "summary_of_the_method": "as §1"}},
  "note": "Some of the results follow.",
  "data": [
    {"binder": "B1", "values": [
      {"measurement": "glycan array binding signal (z-score)", "setting": "Fuc(a1-2)Gal", "value": -0.161},
      {"measurement": "glycan array binding signal (z-score)", "setting": "Fuc(a1-2)Gal(b1-3)GalNAc", "value": -0.657},
      {"measurement": "glycan array binding signal (z-score)", "setting": "[1]", "value": -0.202},
      {"measurement": "glycan array binding signal (z-score)", "setting": "[2]", "value": -0.788},
      {"measurement": "glycan array binding signal (z-score)", "setting": "[3]", "value": 1.32},
      {"measurement": "glycan array binding signal (z-score)", "setting": "[4]", "value": 0.142},
      {"measurement": "glycan array binding signal (z-score)", "setting": "[5]", "value": 1.5},
      {"measurement": "glycan array binding signal (z-score)", "setting": "Fuc(a1-2)Gal(b1-3)GlcNAc", "value": -0.175},
      {"measurement": "glycan array binding signal (z-score)", "setting": "[6]", "value": -1.41},
      {"measurement": "glycan array binding signal (z-score)", "setting": "[7]", "value": 0.067},
      {"measurement": "glycan array binding signal (z-score)", "setting": "[8]", "value": 0.353},
      {"measurement": "glycan array binding signal (z-score)", "setting": "[9]", "value": -0.266},
      {"measurement": "glycan array binding signal (z-score)", "setting": "[10]", "value": 0.775},
      {"measurement": "glycan array binding signal (z-score)", "setting": "[11]", "value": -0.151},
      {"measurement": "glycan array binding signal (z-score)", "setting": "[12]", "value": 0.514},
      {"measurement": "glycan array binding signal (z-score)", "setting": "[13]", "value": 0.357},
      {"measurement": "glycan array binding signal (z-score)", "setting": "[14]", "value": -0.21},
      {"measurement": "glycan array binding signal (z-score)", "setting": "[15]", "value": -0.033},
      {"measurement": "glycan array binding signal (z-score)", "setting": "[16]", "value": -1.59},
      {"measurement": "glycan array binding signal (z-score)", "setting": "[17]", "value": 3.33},
      {"measurement": "glycan array binding signal (z-score)", "setting": "[18]", "value": -0.485},
      {"measurement": "glycan array binding signal (z-score)", "setting": "Fuc(a1-2)Gal(b1-4)Glc", "value": -0.293},
      {"measurement": "glycan array binding signal (z-score)", "setting": "Fuc(a1-2)Gal(b1-4)Glc6S", "value": -0.422},
      {"measurement": "glycan array binding signal (z-score)", "setting": "Fuc(a1-2)Gal(b1-4)GlcNAc", "value": 0.703},
      {"measurement": "glycan array binding signal (z-score)", "setting": "[19]", "value": 0.654},
      {"measurement": "glycan array binding signal (z-score)", "setting": "[20]", "value": 0.142},
      {"measurement": "glycan array binding signal (z-score)", "setting": "[21]", "value": 0.038},
      {"measurement": "glycan array binding signal (z-score)", "setting": "[22]", "value": -0.184},
      {"measurement": "glycan array binding signal (z-score)", "setting": "[23]", "value": -1.08},
      {"measurement": "glycan array binding signal (z-score)", "setting": "[24]", "value": -0.884}
    ]}
  ]
}
